Measurements reported in PMC12199305.
These are yes or no findings as the source states them, for the method shown. Some binding calls cover weakened binding; strength is not graded here.

Molecular target: MEF2A (human) (UniProt Q02078)
Assay: SPR; Biacore T200, 25 °C; MEF2A immobilised on CM5 chip by amine coupling; class IIa HDACs injected at 40-1.25 nM (2-fold dilutions, in duplicate), 30 uL/min, contact 90 s, dissociation 300 s; HBS-P (10 mM Hepes pH 7.4, 150 mM NaCl, 0.05% P20) for HDAC7 and HDAC9, HBS-P with 1% (v/v) glycerol for HDAC4 and HDAC5; 1:1 kinetic binding model; three independent experiments; both purified

- binding: binds
B1: HDAC7 (enzyme, UniProt Q8WUI4 1-952)
chain: MDLRVGQRPPVEPPPEPTLLALQRPQRLHHHLFLAGLQQQRSVEPMRLSMDTPMPELQVGPQEQELRQLLHKDKSKRSAVASSVVKQKLAEVILKKQQAALERTVHPNSPGIPYRTLEPLETEGATRSMLSSFLPPVPSLPSDPPEHFPLRKTVSEPNLKLRYKPKKSLERRKNPLLRKESAPPSLRRRPAETLGDSSPSSSSTPASGCSSPNDSEHGPNPILGSEALLGQRLRLQETSVAPFALPTVSLLPAITLGLPAPARADSDRRTHPTLGPRGPILGSPHTPLFLPHGLEPEAGGTLPSRLQPILLLDPSGSHAPLLTVPGLGPLPFHFAQSLMTTERLSGSGLHWPLSRTRSEPLPPSATAPPPPGPMQPRLEQLKTHVQVIKRSAKPSEKPRLRQIPSAEDLETDGGGPGQVVDDGLEHRELGHGQPEARGPAPLQQHPQVLLWEQQRLAGRLPRGSTGDTVLLPLAQGGHRPLSRAQSSPAAPASLSAPEPASQARVLSSSETPARTLPFTTGLIYDSVMLKHQCSCGDNSRHPEHAGRIQSIWSRLQERGLRSQCECLRGRKASLEELQSVHSERHVLLYGTNPLSRLKLDNGKLAGLLAQRMFVMLPCGGVGVDTDTIWNELHSSNAARWAAGSVTDLAFKVASRELKNGFAVVRPPGHHADHSTAMGFCFFNSVAIACRQLQQQSKASKILIVDWDVHHGNGTQQTFYQDPSVLYISLHRHDDGNFFPGSGAVDEVGAGSGEGFNVNVAWAGGLDPPMGDPEYLAAFRIVVMPIAREFSPDLVLVSAGFDAAEGHPAPLGGYHVSAKCFGYMTQQLMNLAGGAVVLALEGGHDLTAICDASEACVAALLGNRVDPLSEEGWKQKPNLNAIRSLEAVIRVHSKYWGCMQRLASCPDSWVPRVPGADKEEVEAVTALASLSVGILAEDRPSEQLVEEEEPMNL
